Earlier results in US10238678B2, “Therapeutic methods” (GlaxoSmithKline LLC, priority 2011, dated 2019).
For at least one compound, name, drawing or mass did not settle the structure.

Tested on: HCV
Details: added to the pegylated interferon and ribavirin regimen

In the case of `CCC[C@H](NC(=O)[C@@H]1[C@H]2CCC[C@H]2CN1C(=O)[C@@H](NC(=O)[C@@H](NC(=O)c1cnccn1)C1CCCCC1)C(C)(C)C)C(=O)C(=O)NC1CC1` [Incivek, telaprevir], the cure rates is given as ≤ 80%.
